Assay results as given in PubChem BioAssay AID2685 (National Center for Advancing Translational Sciences (NCATS), 2010).
The other results are listed elsewhere or left out. The main result of the screen is listed elsewhere. These columns were measured beside it and carry no call. The list favours compounds with an active or inconclusive main result. The note in brackets gives the kind of curve behind each potency; many fits are weak.

Assay: qHTS Assay for Lipid Storage Modulators in Drosophila S3 Cells;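 as to cell number change: cells counted by Cell Tracker Red CMTPX staining in the red channel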
Details: BODIPY lipid droplet fluorescence, 18-24 h; for cell number change: measured here: cell count max response, cells fed with added oleic acid
Procedure, shortened: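 Drosophila S3 cells loaded with oleic acid (400 uM, as added) and compounds at several concentrations; lipid droplets imaged by 488-nm laser-scanning cytometry, 500–530 nm intensity and object ratio to cell channel. Percent activity normalized to 20 uM Triacsin C.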

[1] = measured here: cell number channel AC50, cells fed with added oleic acid
[2] = measured here: lipid fluorescence (Fed channel) AC50, cells fed with added oleic acid

Compound | cell number change | AC50 [1] | AC50 [2]
COC(=O)c1cc(C)nc2c1c(C)nn2-c1ccccc1 | 1.16% | – | –
CN(C)S(=O)(=O)c1cccc(NC(=O)CN(CCO)CC(=O)Nc2cccc(S(=O)(=O)N(C)C)c2)c1 | – | 2.59 µM [rising, partial curve, poor fit] | 29.1 µM [rising, single point]
CCc1ccc(C(=O)NC(CC(C)C)C(=O)O)cc1 (centres undefined) | 7.37% | – | 29.1 µM [falling, single point]
CCN(c1ccccc1)S(=O)(=O)c1ccc(Cl)c(C(=O)O)c1 | -19.3% | – | 4.61 µM [falling, partial curve, poor fit]
O=C(C1CCCCC1)N1CCCC(c2nc3c(nnn3Cc3ccccc3)c(=O)[nH]2)C1 (centres undefined) | -29.4% | – | 0.146 µM [falling, partial curve, poor fit]
O=C(NCc1ccccn1)c1ccc(Cl)c(NC2=NC3CS(=O)(=O)CC3S2)c1 (centres undefined) | -21.7% | – | 10.3 µM [falling, partial curve, poor fit]
CN(C)c1cccc(NC2=CC(=[N+]3CCOCC3)CC(C)(C)C2)c1 | -6.77% | 0.058 µM [falling, full curve, poor fit] | –
CCN(CC)c1ccc(/C=C2\C(=O)c3ccc(C(=O)O)cc3C2=O)cc1 | -145% | 29.1 µM [falling, single point] | 29.1 µM [falling, partial curve]
CCOC(=O)c1[nH]c2ccccc2c1NC(=O)c1ccc(S(=O)(=O)N2CCCCC2)cc1 | -28.9% | – | 5.8 µM [falling, partial curve]
COc1ccccc1NS(=O)(=O)c1cccc(C(=O)N/N=C/c2ccc([N+](=O)[O-])o2)c1 | -36.2% | 32.6 µM [falling, single point] | 18.4 µM [falling, single point]
O=C(O)CN1C(=O)/C(=C\c2cn(CC(=O)N3CCOCC3)c3ccccc23)SC1=S | -38.5% | 0.651 µM [falling, full curve] | 7.31 µM [falling, partial curve]
CC(C)(C)c1ccc(COc2ccsc2C(=O)O)cc1 | -20.2% | 1.16 µM [falling, single point] | –
COc1cccc(NC(=O)CNC(C)CCC(C)C)c1 (centres undefined) | -19.7% | – | 14.6 µM [falling, single point]
O=c1c2c(nc3c(-c4ccccc4)c[nH]n13)CCC2 | 5.19% | – | 0.259 µM [falling, full curve, poor fit]
Cc1ccccc1NC(=O)Nc1nc2ccc(S(C)(=O)=O)cc2s1 | 33.4% | 14.6 µM [rising, partial curve, poor fit] | –
Cc1ccc(CNC(=O)CSc2nc3ccccc3c(=O)n2CCCO)cc1 | 73.6% | 4.61 µM [rising, partial curve] | –
OCC[C@@H]1C[C@@H](O)[C@H](O)[C@@]2(Cc3ccccc3CO2)O1 | 22.2% | – | –
CC(=O)c1ccc(-c2nnc(CCC(=O)N3CCCC(C(=O)CC(C)C)C3)o2)s1 (centres undefined) | -6.12% | – | –
O=C(CSc1ncn[nH]1)c1cccc([N+](=O)[O-])c1 | -33.7% | – | 13 µM [falling, partial curve, poor fit]
CCOC(=O)c1cc(C)[nH]c(=S)c1C#N | -14.7% | – | –
COC(=O)[C@H](Cc1ccccc1)NC(=O)NCc1ccc(C)cc1 | 6.9% | – | 29.1 µM [falling, single point]

2 of these compounds, reformatted.

| Compound | cell number change | AC50 [1] | AC50 [2] |
| --- | --- | --- | --- |
| O=C(C1CCCCC1)N1CCCC(c2nc3c(nnn3Cc3ccccc3)c(=O)[nH]2)C1 (centres undefined) | -29.4% | – | 0.146 µM [falling, partial curve, poor fit] |
| CN(C)c1cccc(NC2=CC(=[N+]3CCOCC3)CC(C)(C)C2)c1 | -6.77% | 0.058 µM [falling, full curve, poor fit] | – |

Additional structures

Compound | cell number change | AC50 [1] | AC50 [2]
COc1ccccc1N1CCN(C(=O)Nc2ccc([N+](=O)[O-])cc2)CC1 | 8.96% | – | –
CN1C=CC=C/C1=C1/N=C(c2ccccc2)OC1=O | – | – | 0.517 µM [falling, single point]
Cc1cc(C)nc(-n2nc(C)cc2NC(=O)c2ccc(S(=O)(=O)N3CCOCC3)cc2)n1 | 6.29% | 0.461 µM [falling, single point] | –
O=C(O)/C(=C\c1ccccc1OC(F)F)c1ccc(-c2ccccc2)cc1 | 2.56% | – | 0.058 µM [rising, partial curve, poor fit]
CC1(C)CC(=O)C(N=Nc2cc(Cl)c(Cl)c(Cl)c2)=C(O)C1 | 6.14% | – | 0.00517 µM [rising, full curve, poor fit]
CCOc1ccc(S(=O)(=O)n2cc(-c3ccc(F)cc3)c(N)n2)cc1 | -10.7% | – | 0.92 µM [rising, full curve]
CCCCNC(=O)c1cc2c(C)cc(C)cc2[nH]1 | 8.68% | – | 0.291 µM [rising, full curve, poor fit]
CCOC(=O)c1nn(-c2ccccc2)c(=O)cc1SC1CCCCC1 | 32.4% | – | 3.66 µM [rising, partial curve]
CCCOc1ccc(C(F)(F)F)cc1NC(=O)CCc1c(C)noc1C | -3.8% | – | –
O=C(COC(=O)CNC(=O)c1ccccc1F)NC12CC3CC(CC(C3)C1)C2 | -0.223% | – | 0.366 µM [rising, full curve]
O=C(OCc1nnc(-c2ccccc2)o1)c1cc(=O)[nH]c2ccccc12 | 19.3% | – | –
C=CCn1c(SCC(=O)NC2CC2)nnc1-c1cccs1 | 9.38% | – | –
O=C(Oc1ccc(-c2ccccc2)cc1)N1CCCCC1 | 12.5% | – | 2.59 µM [falling, full curve, poor fit]
CCOc1ccc(C2=NNC(c3cccs3)=Nc3ccc(OC)cc32)cc1 | -40.6% | 29.1 µM [falling, single point] | 18.4 µM [falling, single point]
COc1cccc(N2CCN(C(=O)CN(C)S(=O)(=O)c3ccc4c(c3)CCC(=O)N4)CC2)c1 | -29.9% | – | 4.11 µM [rising, full curve]
O=C(CN1CCN(c2ccc(F)cc2)CC1)N1N=CCC1c1ccccc1 (centres undefined) | 22.3% | – | –
CC(=O)N1CCN(c2ncnc3ccccc23)CC1 | 18.5% | – | 0.651 µM [rising, partial curve, poor fit]
CN(CC(=O)Nc1ccc(F)c(F)c1F)C(=O)CC1CCCCC1 | -16.6% | 3.66 µM [falling, partial curve, poor fit] | 0.461 µM [falling, partial curve, poor fit]
COc1cccc(C(c2c(NC(=O)c3ccco3)sc(C)c2C)N2CCOCC2)c1 (centres undefined) | – | – | 18.4 µM [falling, partial curve]
CSc1nccc(NC(=O)c2ccc(C(C)(C)C)cc2)n1 | -47% | 32.6 µM [falling, single point] | 32.6 µM [falling, single point]
CC1CCCN(C(=O)Cn2c(=O)oc3ccccc32)C1 (centres undefined) | -1.58% | – | 16.4 µM [falling, single point]

In a second layout: entries from further up.
Compound	cell number change	AC50 [1]	AC50 [2]
CCOc1ccc(S(=O)(=O)n2cc(-c3ccc(F)cc3)c(N)n2)cc1	-10.7%	–	0.92 µM [rising, full curve]
CCCCNC(=O)c1cc2c(C)cc(C)cc2[nH]1	8.68%	–	0.291 µM [rising, full curve, poor fit]
CCOC(=O)c1nn(-c2ccccc2)c(=O)cc1SC1CCCCC1	32.4%	–	3.66 µM [rising, partial curve]
CCCOc1ccc(C(F)(F)F)cc1NC(=O)CCc1c(C)noc1C	-3.8%	–	–
O=C(COC(=O)CNC(=O)c1ccccc1F)NC12CC3CC(CC(C3)C1)C2	-0.223%	–	0.366 µM [rising, full curve]
O=C(OCc1nnc(-c2ccccc2)o1)c1cc(=O)[nH]c2ccccc12	19.3%	–	–
C=CCn1c(SCC(=O)NC2CC2)nnc1-c1cccs1	9.38%	–	–
O=C(Oc1ccc(-c2ccccc2)cc1)N1CCCCC1	12.5%	–	2.59 µM [falling, full curve, poor fit]
CCOc1ccc(C2=NNC(c3cccs3)=Nc3ccc(OC)cc32)cc1	-40.6%	29.1 µM [falling, single point]	18.4 µM [falling, single point]
COc1cccc(N2CCN(C(=O)CN(C)S(=O)(=O)c3ccc4c(c3)CCC(=O)N4)CC2)c1	-29.9%	–	4.11 µM [rising, full curve]
O=C(CN1CCN(c2ccc(F)cc2)CC1)N1N=CCC1c1ccccc1 (centres undefined)	22.3%	–	–

Further records.

Compound | cell number change | AC50 [1] | AC50 [2]
Cn1c(=O)n(CCc2ccccc2)c(=O)c2c1nc1n2CCN1Cc1ccco1 | -28.7% | – | 18.4 µM [rising, single point]
CCSC1=C(C#N)C(c2cccc(OC)c2)CC(=O)N1 (centres undefined) | -123% | 29.1 µM [falling, single point] | 6.51 µM [falling, single point]
CC1(C)CC(=O)C2=C(C1)Oc1ncn3nc(-c4cccnc4)nc3c1C2c1ccccc1 (centres undefined) | -2.83% | – | –
CCN(CCO)C(=O)C(c1ccccc1)c1ccccc1 | -79.6% | 18.4 µM [falling, single point] | 14.6 µM [falling, partial curve]
Cc1ccc(NS(=O)(=O)c2cccc(C(=O)N3CCOCC3)c2)cc1 | 4.07% | – | –
COC(=O)C1C(c2ccc(OC)cc2)NC(=O)NC1(O)C(F)(F)Cl (centres undefined) | -32% | – | 18.4 µM [falling, partial curve]
O=C(Nc1cccnc1)c1ccccc1F | 21% | – | –
CCOc1ccc(C(=O)NNC2CC(=O)N(CCc3ccccc3)C2=O)cc1OC (centres undefined) | -6.66% | – | 6.51 µM [rising, single point]
COc1ccc(OC)c(NC(=O)C2CCN(S(=O)(=O)c3ccc4c(c3)OCCO4)CC2)c1 | – | – | 0.731 µM [rising, partial curve, poor fit]
CCCCOc1ccc(S(=O)(=O)NNC(=O)c2cc3ccccc3o2)cc1 | -50% | 4.11 µM [falling, partial curve] | 2.91 µM [falling, partial curve]
CCNC(=O)CSc1nnc(-c2cccs2)o1 | -18.1% | – | –
Cc1oc(CN2CCOCC2)cc1C(=O)O | -17.8% | – | –
Cc1ccccc1S(=O)(=O)Cc1ccc(C(=O)NC2CC2)o1 | -16.5% | – | –
CCOC(=O)N1CCC(C(N)=O)CC1 | -84.2% | 29.1 µM [falling, single point] | 23.1 µM [falling, single point]
COc1ccc2nc(NC(=O)CSc3nccc(C)n3)sc2c1 | -8.92% | – | 29.1 µM [falling, single point]
Cc1ccc2nc(-c3cccc(S(=O)(=O)N4CC(C)OC(C)C4)c3)cn2c1 (centres undefined) | – | – | 0.291 µM [falling, full curve]
O=C(C[n+]1ccc(C(=O)N/N=C/c2ccc(Br)cc2)cc1)c1ccccc1 | – | 0.731 µM [rising, single point] | 1.03 µM [rising, full curve]
CCN(CCCNC(=O)CN1C(=O)COc2ccccc21)c1cccc(C)c1 | – | – | 6.51 µM [rising, single point]
Cc1c(NC(=O)NCCN2C(=O)C3C4C=CC(C4)C3C2=O)c(=O)n(-c2ccccc2)n1C (centres undefined) | 0.546% | – | –
Cc1ccc2nc(-c3ccc(NS(=O)(=O)c4ccc(F)c(F)c4)cc3)sc2c1 | -32% | 0.00517 µM [falling, full curve, poor fit] | 29.1 µM [falling, single point]
